# Laboratory results: EP4796567A2
# By UniProt entry, the sequences of proteins in these tests, tags left out. Where a name states a change or a piece, a line headed by the entry shows the natural chain unless it says otherwise.
# UniProt P11912: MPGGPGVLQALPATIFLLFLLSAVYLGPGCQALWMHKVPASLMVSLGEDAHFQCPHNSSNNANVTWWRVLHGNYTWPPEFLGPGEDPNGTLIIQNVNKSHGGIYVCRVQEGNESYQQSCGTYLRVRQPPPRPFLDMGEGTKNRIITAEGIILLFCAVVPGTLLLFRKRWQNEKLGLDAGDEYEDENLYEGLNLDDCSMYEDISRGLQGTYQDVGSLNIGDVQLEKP
# These are yes or no findings as the source states them, for the method shown. Some entries that bind do so weakly or less than the wild type.
# Target: CD79 (UniProt P11912)
# Assay: antigen binding kinetics (Table 3)
binder,measurement,value
"engineered anti-CD79 antibody LB630/519 (antibody, V domains shown) VH: QVQLVQSGAEVKKPGASVKVSCKASGYAFSYSWMNWVRQAPGQGLEWMGRIYPESGDTNYNGKFKGRVTMTRDTSISTAYMELSRLRSDDTAVYYCARWVYGLPHFDYWGQGTLVTVSS VL: DVVMTQSPLSLPVTLGQPASISCKSSQSLLDSDGKTYLNWLQQRPGQSPRRLIYLVSKLDSGVPDRFSGSGSGTDFTLKISRVEAEDVGVYYCWQGTHLPFTFGGGTKVEIK",binding,binds
